{
  "source": "patent US20250376659A1",
  "about": "“DERIVATION OF SOMATOTROPHS FROM STEM CELLS AND USES THEREOF” (MEMORIAL SLOAN-KETTERING CANCER CENTER, priority 2017, published 2025)",
  "system": "Human ES or iPS cells",
  "assay": "Marker gene expression during step-wise differentiation of human pluripotent stem cells to somatotrophs",
  "type": "cell-based",
  "protocol": "Human ES or iPS cells were expanded in E8 media on matrigel.\nOn day 0, cells were changed to E6 media where BMP4 (5 ng/ml) and SB43152 (10 μM) were added, with daily medium and factors change.\nOn day 3, BMP4 was removed and the following factors added: FGF8 (100 ng/ml); FGF10 (50 ng/ml); FGF18 (50 ng/ml); Sonic hedgehog (SHH) (100 ng/ml) or SAG (Smoothened Agonist) (100 nM); LDN193189 (250 nM). Media and factors were changed every other day.\nMedia and factors are changed every other day.\nOn day 15, the following factors were used: Retinoic acid (1 μM); Thyroid hormone T3 (10 nM); Dexamethasone (1 μM); cyclic AMP (100 μg/ml); DPN (0.1 nM); Growth Hormone Releasing Hormone (GHRH) (1 μM). Media and factors were changed every other day.\nOn day 29, the cells entered the maturation phase and could be maintained in the same factors for a variable period ranging from 1-4 weeks. […] They could be subjected to FACS sorting for GHRH in order to obtain a pure cell population of somatotrophs. Cells remained on matrigel for the duration of the protocol.\nIn order to derive GH cells, the strategy was to first differentiate human pluripotent stem cells to pre-placodal ectoderm and anterior pituitary progenitors. The cells were further differentiated to PROP1 lineage, and then to PIT1 lineage. The cells were then terminally differentiated to GH cells. […]",
  "note": "At least one compound was matched to its structure with a doubt left.",
  "data": [
    {"smiles": "CC1=C(/C=C/C(C)=C/C=C/C(C)=C/C(=O)O)C(C)(C)CCC1", "note": "[RA, retinoic acid, reference compound]", "values": [
      {"measurement": "POMC expression", "setting": "FIG. 5", "value": "suppressing"},
      {"measurement": "GH1 expression", "setting": "FIG. 6, 7A, 7B, 16, compared with the control group", "value": "significantly increased"}
    ]}
  ]
}
